{"source": "PubChem BioAssay AID1671195, Yale University | 2021", "screen": "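Genes whose knockdown alters LDL uptake in liver cancer cells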 (primary screen)", "system": "human Huh7 hepatoma cells", "knock-down reagent": "siRNA pool against human genes, 18 nM", "time to read-out": "about 2 to 2.5 days of knockdown, then 8 h LDL uptake", "challenge": "DiI-labelled LDL at 30 µg/ml for 8 h, in lipoprotein-deficient serum medium", "detection": "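Per-cell DiI-LDL intensity by automated imaging; well means scaled to the plate median and given as a robust z-score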", "scale": "robust z-score: higher = more LDL uptake after knockdown", "active means": "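a gene counts as active if at least two replicate z-scores exceed ±2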", "note": "The deposit covers about 22,000 reagents; this is an unselected part. In the full data, about 1,510 (6.9%) are marked active. 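Active includes knockdowns raising or lowering LDL uptake; positive z-scores mean more uptake, negative mean less.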 Entries without a mark were called inactive."}
{"Target gene": "GABRB1", "PubChem SID": "SID442888002", "robust z-score, replicate 1": 0.69, "robust z-score, replicate 2": 1, "robust z-score, replicate 3": 0.707}
{"Target gene": "H3C12", "PubChem SID": "SID442893691", "robust z-score, replicate 1": -0.112, "robust z-score, replicate 2": 0.158, "robust z-score, replicate 3": 0.0168}
{"Target gene": "MKI67", "PubChem SID": "SID442889300", "robust z-score, replicate 1": 1.12, "robust z-score, replicate 2": -0.443, "robust z-score, replicate 3": 1.06}
{"Target gene": "CLDN20", "PubChem SID": "SID442900250", "robust z-score, replicate 1": -0.912, "robust z-score, replicate 2": -0.621, "robust z-score, replicate 3": -0.671}
{"Target gene": "LOC126772 (retired record)", "PubChem SID": "SID442885841", "robust z-score, replicate 1": 0.453, "robust z-score, replicate 2": 2.55, "robust z-score, replicate 3": 1.04}

2 neighbouring reagents from above, quoted:
{"Target gene": "GABRB1", "PubChem SID": "SID442888002", "robust z-score, replicate 1": 0.69, "robust z-score, replicate 2": 1, "robust z-score, replicate 3": 0.707}
{"Target gene": "H3C12", "PubChem SID": "SID442893691", "robust z-score, replicate 1": -0.112, "robust z-score, replicate 2": 0.158, "robust z-score, replicate 3": 0.0168}

Additional records:
{"Target gene": "ADI1", "PubChem SID": "SID442886832", "robust z-score, replicate 1": 1.53, "robust z-score, replicate 2": 0.959, "robust z-score, replicate 3": 0.671}
{"Target gene": "HEMGN", "PubChem SID": "SID442886689", "robust z-score, replicate 1": 1.42, "robust z-score, replicate 2": 0.382, "robust z-score, replicate 3": 1.46}
{"Target gene": "ZNF747", "PubChem SID": "SID442891384", "robust z-score, replicate 1": 0.175, "robust z-score, replicate 2": 0.644, "robust z-score, replicate 3": 0.0604}
{"Target gene": "LOC401280 (retired record)", "PubChem SID": "SID442903719", "robust z-score, replicate 1": -0.345, "robust z-score, replicate 2": -3.06, "robust z-score, replicate 3": -0.699}
{"Target gene": "MANBA", "PubChem SID": "SID442896040", "robust z-score, replicate 1": -0.101, "robust z-score, replicate 2": -0.379, "robust z-score, replicate 3": -0.215}
{"Target gene": "KIAA0040", "PubChem SID": "SID442891829", "robust z-score, replicate 1": -0.567, "robust z-score, replicate 2": 0.0104, "robust z-score, replicate 3": 1.28}
{"Target gene": "NLRP7", "PubChem SID": "SID442884062", "robust z-score, replicate 1": "2.04 (active)", "robust z-score, replicate 2": 2.35, "robust z-score, replicate 3": 1.66}
